For the data set, the target named is p53 wild type (Homo sapiens) (UniProt P04637). The experiment in a line: EMSA. To be noted: purified recombinant protein, protein details: bacterial expression, Fraction III, label: 32P. In general terms: A gel shift assay detects complexes by their altered migration in electrophoresis.

The record followed here is US6140058.

A negative result means that nothing was seen under these conditions.

Consider “AGCTTAGACATGCCTAGACATGCCTA / AGCTTAGGCATGTCTAGGCATGTCTA [PG p53 consensus site]”, for which the binding result reads like this: (PAb421-activated then NEM, inhibited) “no binding”; (latent, no activating protein) “no binding”.
